Test results from paper PMC5996148.
This is one part of the list. For some assays here: The source does not settle which construct or isoform was used.

Key:
Assay in all cases: protein microarray (ProtoArray v5.0), streptavidin-Alexa Fluor 647
Conditions in all cases: 3'-biotin; 20 mM Tris (pH 7.5), 5 mM MgCl2, 100 mM KCl, 0.1% Tween-20, A/T-rich and random oligonucleotide blockers; temperature not stated; high values mean tight binding
[1] = tested on: DNAJC5 (human)
[2] = tested on: DNAJC5B (human)
[3] = tested on: DNAJC5G (human)
[4] = tested on: DNAJC7 (human)
[5] = tested on: DNAL1 (human)
[6] = target: T1, DNAL4 (UniProt O96015)
T1 sequence: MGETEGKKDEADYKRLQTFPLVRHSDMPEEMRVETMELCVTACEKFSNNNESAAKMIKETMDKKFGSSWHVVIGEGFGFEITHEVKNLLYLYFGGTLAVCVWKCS

[7] = tested on: DOK3 (human)
[8] = tested on: DOLPP1 (human)
[9] = tested on: DPCR1 (human)
[10] = tested on: DPM2 (human)
[11] = tested on: DPP3 (human)
[12] = tested on: DSCR1L1 (human)
[13] = tested on: DSCR4 (human)
[14] = tested on: DSN1 (human)
[15] = tested on: DSTN (human)
[16] = tested on: DTNB (human)
[17] = tested on: DTNBP1 (human)
[18] = tested on: DTYMK (human)
[19] = tested on: DULLARD (human)
[20] = target: T2, DUS1L (UniProt Q6P1R4)
T2 sequence: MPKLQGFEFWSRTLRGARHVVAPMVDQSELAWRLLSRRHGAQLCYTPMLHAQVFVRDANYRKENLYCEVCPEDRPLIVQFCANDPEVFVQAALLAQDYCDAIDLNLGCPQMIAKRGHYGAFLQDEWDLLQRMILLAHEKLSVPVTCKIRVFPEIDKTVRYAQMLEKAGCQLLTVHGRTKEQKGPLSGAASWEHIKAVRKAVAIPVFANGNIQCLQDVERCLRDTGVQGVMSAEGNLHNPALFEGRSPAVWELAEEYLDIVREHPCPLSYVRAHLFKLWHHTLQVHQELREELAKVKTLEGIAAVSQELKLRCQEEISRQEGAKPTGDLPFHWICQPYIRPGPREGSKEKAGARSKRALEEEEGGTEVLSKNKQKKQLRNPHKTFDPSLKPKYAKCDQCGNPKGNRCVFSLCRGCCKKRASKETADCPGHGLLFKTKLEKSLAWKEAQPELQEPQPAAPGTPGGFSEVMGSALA

Sequence: GGGAGGCTGAGGCAGG [G4-1 biotinylated (PQS2)]
- binding signal [1]: -0.288 z-score
- binding signal [2]: -0.305 z-score
- binding signal [3]: -0.343 z-score
- binding signal [4]: -0.292 z-score
- binding signal [5]: -0.333 z-score
- binding signal [6]: -0.329 z-score
- binding signal [7]: -0.257 z-score
- binding signal [8]: -0.307 z-score
- binding signal [9]: -0.327 z-score
- binding signal [10]: -0.292 z-score
- binding signal [11]: -0.36 z-score
- binding signal [12]: -0.252 z-score
- binding signal [13]: -0.339 z-score
- binding signal [14]: -0.32 z-score
- binding signal [15]: -0.319 z-score
- binding signal [16]: -0.35 z-score
- binding signal [17]: -0.342 z-score
- binding signal [18]: -0.336 z-score
- binding signal [19]: -0.323 z-score
- binding signal [20]: 3.49 z-score
